Data as given in PubChem BioAssay AID1259425 (University of Nebraska Medical Center, 2018)

Aim: 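Seek colon cancer weak points whose silencing resembles KSR1 loss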 (primary screen)
Cells: HCT116 human colon cancer cells
Reagents: siRNA pool against human genes, 50 nM siRNA
Detection: 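mRNA of six signature genes measured together by branched-DNA assay after 50 nM siRNA pool, blank removed, divided by geometric mean of two housekeeping genes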
Direction: BNIP3L mRNA: higher = more BNIP3L transcript after knockdown; NDRG1 mRNA: higher = more NDRG1 transcript after knockdown; BNIP3 mRNA: higher = more BNIP3 transcript after knockdown; ALDOC mRNA: higher = more ALDOC transcript after knockdown; ACSL5 mRNA: higher = more ACSL5 transcript after knockdown
Here is a random part of about 14,000 reagents tested. Reagent sequences are not shown. Not given: the time to read-out.

| BNIP3L mRNA, set 1 | NDRG1 mRNA, set 1 | BNIP3 mRNA, set 1 | ALDOC mRNA, set 1 | ACSL5 mRNA, set 1 | gene |
| --- | --- | --- | --- | --- | --- |
| 0.0806 | 0.104 | 0.231 | 0.0192 | 0.125 | CCNY (cyclin Y) |
| 0.148 | 0.292 | 0.492 | 0.0585 | 0.232 | NLRX1 (NLR family member X1) |
| 0.124 | 0.473 | 0.347 | 0.0208 | 0.2 | RAD23B (RAD23 nucleotide excision repair protein B) |
| 0.108 | 0.434 | 0.41 | 0.0115 | 0.207 | TENT5A (terminal nucleotidyltransferase 5A) |
| 0.497 | 0.523 | 0.742 | 0.134 | 0.38 | FUZ (fuzzy planar cell polarity protein) |
| 0.0636 | 0.174 | 0.465 | 0.0199 | 0.0747 | UPF2 (UPF2 regulator of nonsense mediated mRNA decay) |
| 0.131 | 0.303 | 0.342 | 0.0153 | 0.261 | PAX3 (paired box 3) |
| 0.105 | 0.45 | 0.177 | 0.0247 | 0.24 | CENPK (centromere protein K) |
| 0.183 | 0.133 | 0.251 | 0.0692 | 0.201 | SLC61A1 |
| 0.162 | 0.13 | 0.429 | 0.0726 | 0.302 | DERA (deoxyribose-phosphate aldolase) |
| 0.0615 | 0.218 | 0.157 | 0.0361 | 0.313 | KLHL20 (kelch like family member 20) |
| 0.0981 | 0.161 | 0.299 | 0.0385 | 0.0471 | GYG2 (glycogenin 2) |
| 0.111 | 0.477 | 0.219 | 0.0415 | 0.336 | KCNC2 (potassium voltage-gated channel subfamily C member 2) |
| 0.0066 | 0.0878 | 0.265 | 0.0222 | 0.12 | BNIP3L (BCL2 interacting protein 3 like) |
| 0.101 | 0.538 | 0.2 | 0.0239 | 0.446 | TRIR (telomerase RNA component interacting RNase) |
| 0.0578 | 0.11 | 0.236 | 0.0267 | 0.134 | PTMA (prothymosin alpha) |
| 0.191 | 0.113 | 0.275 | 0.0329 | 0.204 | NBR2 (neighbor of BRCA1 lncRNA 2) |
| 0.0545 | 0.111 | 0.259 | 0.0176 | 0.0926 | HLA-DOA (major histocompatibility complex, class II, DO alpha) |
| 0.0938 | 0.129 | 0.259 | 0.0282 | 0.182 | GRIP1 (glutamate receptor interacting protein 1) |
| 0.133 | 0.0744 | 0.386 | 0.0312 | 0.183 | BCL9 (BCL9 transcription coactivator) |
